About 910 (0.23%) of roughly 390,000 compounds were called active. The inconclusive results got no clear call from the source; some entries with a clear call stand among them for comparison. The call rests on the fitted dose curve; in most records, active means well fitted inhibition curve with a large enough effect; inconclusive means small, poorly fitted or top-dose-only effect; inactive means no such curve, though single readings can be large or run the other way. Potencies of inconclusive entries are doubtful fits and often do not repeat.
The compounds below were run against Ubiquitin carboxyl-terminal hydrolase 1 (Homo sapiens) (UniProt O94782) (assay: Inhibitors of USP1/UAF1: Primary Screen). Details: recombinant USP1/UAF1, Ub-Rhodamine cleavage fluorescence; activity change, negative = inhibition: at 57.1 µM (top of the series).
Outline: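 In this screen, compounds sit with the deubiquitinase complex (1nM) for 15 min at room temperature before Ub-Rho is added at 150nM final. Fluorescence rise is then followed for 6 reads every 60 seconds.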
Further: nearly all actives have a fitted effect of over 60% in size.
On the % scale 0 is the no-effect control and ±100 the full control effect; potency means the concentration at half of the fitted maximal effect.

Amino acid sequences for entries named in this document (tags omitted). A change or cut given only in a name is not applied to a line headed by its entry.
UniProt O94782: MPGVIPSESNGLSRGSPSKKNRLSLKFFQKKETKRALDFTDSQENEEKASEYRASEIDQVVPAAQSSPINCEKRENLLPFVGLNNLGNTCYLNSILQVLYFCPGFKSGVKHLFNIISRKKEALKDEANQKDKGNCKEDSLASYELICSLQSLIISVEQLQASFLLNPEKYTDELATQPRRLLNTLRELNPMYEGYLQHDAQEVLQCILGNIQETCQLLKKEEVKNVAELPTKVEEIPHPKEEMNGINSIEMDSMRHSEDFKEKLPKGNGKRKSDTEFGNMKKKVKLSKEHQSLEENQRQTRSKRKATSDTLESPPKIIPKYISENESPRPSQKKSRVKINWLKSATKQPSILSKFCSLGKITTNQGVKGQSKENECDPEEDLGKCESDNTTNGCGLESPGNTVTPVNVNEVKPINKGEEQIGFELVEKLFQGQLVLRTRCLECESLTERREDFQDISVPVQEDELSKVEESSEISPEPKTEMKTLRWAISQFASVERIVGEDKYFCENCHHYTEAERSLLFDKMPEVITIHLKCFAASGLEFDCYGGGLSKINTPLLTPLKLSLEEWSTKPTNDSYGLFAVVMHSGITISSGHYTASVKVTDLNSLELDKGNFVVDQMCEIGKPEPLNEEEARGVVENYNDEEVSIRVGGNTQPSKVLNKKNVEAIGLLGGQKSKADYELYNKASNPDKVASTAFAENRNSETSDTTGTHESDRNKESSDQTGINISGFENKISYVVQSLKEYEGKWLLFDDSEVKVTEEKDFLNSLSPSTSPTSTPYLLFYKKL

| SMILES | Potency | activity change, negative = inhibition |
| --- | --- | --- |
| O=C(/C=C/c1cccs1)NCc1ccccc1 | inconclusive: 0.794 µM [inhibitor, full curve, poor fit] |  |
| CCOC(=O)Nc1cc2c(c(N)n1)N=C(c1ccccc1)CN2 | inconclusive: 35.5 µM [inhibitor, partial curve] |  |
| COCCn1c(N)c(S(=O)(=O)c2cccs2)c2nc3ccccc3nc21 | inconclusive: 31.6 µM [inhibitor, partial curve, poor fit] |  |
| Cc1ccc(CNc2nc3c(c(=O)n(C)c(=O)n3C)n2Cc2ccc(Cl)cc2)cc1 | inconclusive: 5.62 µM [inhibitor, full curve] |  |
| Cc1ccc(CN(C(=O)c2ccc(F)cc2)c2ccccn2)o1 | inconclusive: 1.26 µM [inhibitor, full curve] |  |
| COc1ccccc1NC(=O)c1cccc(S(=O)(=O)N2CCOCC2)c1 |  | inactive: -15.5% |
| CCC(CO)Oc1cc(NCc2ccccc2OC)c2ncn(C(C)C)c2c1 (configuration not stated) | inconclusive: 28.2 µM [inhibitor, single point] |  |
| CCCc1ccc(C#N)c(SC2CC(=O)N(c3ccc(OC)cc3)C2=O)n1 (configuration not stated) |  | inactive: -7.99% |
| Cc1ccccc1-n1nc2c(c1NC(=O)COc1ccc(Cl)cc1)CS(=O)C2 (configuration not stated) | inconclusive: 50.1 µM [inhibitor, partial curve, poor fit] |  |
| CCOCCCNC(=O)c1c(N)n(-c2ccc(S(N)(=O)=O)cc2)c2nc3ccccc3nc12 |  | inactive: -18.8% |
| COc1ccc(S(=O)(=O)Nc2ccccc2C(N)=O)cc1OC |  | inactive: -23% |
| COc1cccc(-c2ccnc3c(-c4ccccc4)c(C)nn23)c1 | inconclusive: 112 µM [inhibitor, partial curve, poor fit] |  |
| COC(=O)c1ccc(-c2ccco2)n1Cc1ccccc1Cl | inconclusive: 56.2 µM [inhibitor, partial curve, poor fit] |  |
| Cc1[nH]n(-c2ccccc2)c(=O)c1C(c1ccccc1[N+](=O)[O-])C(C#N)C#N (configuration not stated) |  | inactive: -21% |
| Cn1cnnc1SCC(=O)NCc1cccc(C(F)(F)F)c1 | inconclusive: 0.282 µM [inhibitor, full curve, poor fit] |  |
| CC(C)(C)C1CCC(=NNc2ccc(S(N)(=O)=O)cc2[N+](=O)[O-])CC1 (configuration not stated) |  | inactive: -12.5% |
| O=[N+]([O-])c1nn(-c2ccc3c(c2)OCCO3)n(O)c1=NCCC1=CCCCC1 |  | inactive: -17.9% |
| Cc1ccccc1NC(=O)c1cn(-c2ccccc2)nc1-c1ccccc1 |  | inconclusive: -28.8% [inhibitor] |
| O=C(/C=C/c1ccc(NC(=O)c2ccccc2-c2ccccc2C(=O)O)cc1)c1ccccc1 | inconclusive: 35.5 µM [inhibitor, partial curve] |  |
| NC(=O)COc1ccc(Cc2ncc(C(F)(F)F)cc2Cl)cc1 | inconclusive: 5.01 µM [inhibitor, partial curve] |  |
| CC1(C)Cc2ccccc2-c2nnnn21 | inconclusive: 6.31 µM [inhibitor, full curve, poor fit] |  |

| SMILES | Potency | activity change, negative = inhibition |
| --- | --- | --- |
| CC(C)c1ccc(NC(=O)CSC2=Nc3ccccc3C3=NC(CC(=O)NCc4cccs4)C(=O)N23)cc1 (configuration not stated) | inconclusive: 63.1 µM [inhibitor, partial curve, poor fit] |  |
| COc1ccc(-c2cc(C(=O)Oc3ccc(C)cc3)c3ccccc3n2)cc1 | inconclusive: 1.41 µM [inhibitor, full curve] |  |
| CC(O)C(O)C(O)C(O)/C=N/NC(=O)c1ccccc1 (configuration not stated) | inconclusive: 0.398 µM [inhibitor, partial curve, poor fit] |  |
| O=C(Nc1ccc(Br)cc1)c1cc(-c2cccs2)nc2ccccc12 | inconclusive: 0.562 µM [inhibitor, full curve] |  |
| CC(C)N(C(=O)[C@H]1C[C@H](CC(=O)NCCCn2ccnc2)C(=O)N2CCc3c([nH]c4ccc(Cl)cc34)[C@]12C)C(C)C | inconclusive: 56.2 µM [inhibitor, partial curve, poor fit] |  |
| CN1CCCc2cc3c(C(F)(F)F)cc(=O)oc3nc21 | inconclusive: 12.6 µM [inhibitor, partial curve] |  |
| COc1cccc(N2CCN(C(=O)c3cc4c(s3)-c3c(C)cccc3OC4)CC2)c1 | inconclusive: 44.7 µM [inhibitor, partial curve, poor fit] |  |
| Clc1ccccc1N1CCN(Cc2c[nH]c3ccccc23)CC1 |  | inactive: -10.9% |
| CN(CCc1ccccc1)C(=O)c1ccc(NC(=O)Cc2ccc(NC(=O)C3CCN(C(=O)C4CC4)CC3)cc2)cc1 |  | inactive: -17.8% |
| CCc1ccc(C(=O)COC(=O)C(Cc2c[nH]c3ccccc23)NC(=O)c2ccc(CC)cc2)cc1 (configuration not stated) | inconclusive: 35.5 µM [inhibitor, partial curve] |  |
| Cc1[nH]c2ccccc2c1C(=O)C(=O)N1CCN(c2cccc(Cl)c2)CC1 |  | inactive: -26.3% |
| Cc1ccc(S(=O)(=O)c2nnn3c2nc(NCc2ccc4c(c2)OCO4)c2sccc23)cc1 | inconclusive: 3.98 µM [inhibitor, partial curve] |  |
| CCOC(=O)c1c(Nc2ccc(O)cc2)nnc(-c2ccccc2)c1-c1ccccc1 | inconclusive: 0.316 µM [inhibitor, full curve, poor fit] |  |
| Cc1ccc(SCCN2CCN(CC(C)C)CCC2=O)cc1 | inconclusive: 2.51 µM [inhibitor, full curve, poor fit] |  |
| COc1ccc(NCCNc2ccc(OC)cc2)cc1 | inconclusive: 28.2 µM [inhibitor, partial curve] |  |
| CC(C)Cc1nn2c(=O)cc(COC(=O)CNC(=O)c3ccc(C(C)(C)C)cc3)nc2s1 |  | inactive: -2.34% |
| COc1ccccc1C(=O)Nc1cccc(C(=O)OCc2cc(=O)n3nc(C4CC4)sc3n2)c1 | inconclusive: 5.62 µM [inhibitor, partial curve, poor fit] |  |
| COc1cc(Cl)c(C)cc1NC(=O)CCc1c(C)nc2c3cccnc3nn2c1C |  | inactive: 6.23% |
| Cc1cccc(NS(=O)(=O)c2ccc3c(c2)CCC(=O)N3)c1 | inconclusive: 6.31 µM [inhibitor, full curve, poor fit] |  |
| CCN(CC)S(=O)(=O)c1ccc2c(c1)nc(CN(C)C(=O)Nc1ccc(F)cc1)n2C |  | inactive: -20.8% |
| Cc1ccc(OCCCCn2cnc3ccccc32)cc1 | inactive |  |

Of the compounds above, these have a tert-butyl group:

| SMILES | Potency | activity change, negative = inhibition |
| --- | --- | --- |
| CC(C)(C)C1CCC(=NNc2ccc(S(N)(=O)=O)cc2[N+](=O)[O-])CC1 (configuration not stated) |  | inactive: -12.5% |
| CC(C)Cc1nn2c(=O)cc(COC(=O)CNC(=O)c3ccc(C(C)(C)C)cc3)nc2s1 |  | inactive: -2.34% |

From PubChem BioAssay AID743255 (National Center for Advancing Translational Sciences (NCATS), 2014)
